From the supplement of paper PMC10849652
Some of the results follow.

Protein sequences, listed by entry. Tags and fused reporters are not part of them. Lines headed by an entry give the natural chain unless they say otherwise; changes in a name come on top.
UniProt O00180: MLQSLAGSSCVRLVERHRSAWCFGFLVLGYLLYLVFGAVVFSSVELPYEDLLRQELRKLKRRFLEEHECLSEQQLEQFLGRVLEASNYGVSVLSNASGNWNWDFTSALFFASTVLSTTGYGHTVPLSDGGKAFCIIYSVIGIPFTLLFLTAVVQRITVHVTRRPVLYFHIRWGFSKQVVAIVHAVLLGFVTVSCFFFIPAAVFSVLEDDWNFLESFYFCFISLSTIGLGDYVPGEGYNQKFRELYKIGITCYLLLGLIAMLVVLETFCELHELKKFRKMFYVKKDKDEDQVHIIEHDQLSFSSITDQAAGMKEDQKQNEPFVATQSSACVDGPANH
UniProt Q9P0J7: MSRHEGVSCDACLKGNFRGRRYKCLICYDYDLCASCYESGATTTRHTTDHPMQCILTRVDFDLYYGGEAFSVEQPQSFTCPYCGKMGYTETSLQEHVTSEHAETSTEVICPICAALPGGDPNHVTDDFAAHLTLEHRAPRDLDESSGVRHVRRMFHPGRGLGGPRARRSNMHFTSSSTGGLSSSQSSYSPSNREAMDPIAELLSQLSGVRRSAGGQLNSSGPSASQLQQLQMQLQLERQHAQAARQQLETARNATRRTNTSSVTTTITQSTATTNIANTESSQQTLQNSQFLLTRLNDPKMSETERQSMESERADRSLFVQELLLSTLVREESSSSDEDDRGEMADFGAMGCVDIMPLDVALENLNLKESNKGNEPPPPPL
UniProt Q92830, whole entry, looked up: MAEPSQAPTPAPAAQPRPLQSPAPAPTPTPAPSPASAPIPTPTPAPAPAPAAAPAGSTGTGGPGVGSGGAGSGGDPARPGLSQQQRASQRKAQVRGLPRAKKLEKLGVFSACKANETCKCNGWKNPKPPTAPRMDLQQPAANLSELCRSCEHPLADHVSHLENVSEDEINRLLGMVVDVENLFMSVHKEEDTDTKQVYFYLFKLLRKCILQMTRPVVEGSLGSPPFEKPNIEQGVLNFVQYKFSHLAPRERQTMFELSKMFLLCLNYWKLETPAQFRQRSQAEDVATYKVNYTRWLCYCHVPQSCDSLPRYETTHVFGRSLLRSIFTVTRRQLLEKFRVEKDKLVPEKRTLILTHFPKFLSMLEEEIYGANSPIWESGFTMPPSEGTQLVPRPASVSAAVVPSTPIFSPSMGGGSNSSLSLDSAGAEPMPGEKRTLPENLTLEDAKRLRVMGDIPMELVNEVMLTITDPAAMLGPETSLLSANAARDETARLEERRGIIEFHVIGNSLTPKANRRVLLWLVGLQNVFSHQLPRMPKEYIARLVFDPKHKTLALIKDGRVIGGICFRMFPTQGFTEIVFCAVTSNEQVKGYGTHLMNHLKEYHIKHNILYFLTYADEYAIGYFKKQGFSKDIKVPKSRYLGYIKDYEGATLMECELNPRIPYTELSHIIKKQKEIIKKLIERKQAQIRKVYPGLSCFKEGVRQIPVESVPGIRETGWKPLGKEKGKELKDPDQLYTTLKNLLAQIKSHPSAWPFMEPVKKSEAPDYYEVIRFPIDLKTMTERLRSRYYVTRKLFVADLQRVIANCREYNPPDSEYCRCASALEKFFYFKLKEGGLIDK
UniProt O76095: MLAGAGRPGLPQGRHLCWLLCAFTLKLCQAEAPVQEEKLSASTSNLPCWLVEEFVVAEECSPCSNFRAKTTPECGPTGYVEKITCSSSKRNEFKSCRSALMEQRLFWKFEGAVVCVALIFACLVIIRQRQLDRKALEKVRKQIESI
UniProt Q7LBC6: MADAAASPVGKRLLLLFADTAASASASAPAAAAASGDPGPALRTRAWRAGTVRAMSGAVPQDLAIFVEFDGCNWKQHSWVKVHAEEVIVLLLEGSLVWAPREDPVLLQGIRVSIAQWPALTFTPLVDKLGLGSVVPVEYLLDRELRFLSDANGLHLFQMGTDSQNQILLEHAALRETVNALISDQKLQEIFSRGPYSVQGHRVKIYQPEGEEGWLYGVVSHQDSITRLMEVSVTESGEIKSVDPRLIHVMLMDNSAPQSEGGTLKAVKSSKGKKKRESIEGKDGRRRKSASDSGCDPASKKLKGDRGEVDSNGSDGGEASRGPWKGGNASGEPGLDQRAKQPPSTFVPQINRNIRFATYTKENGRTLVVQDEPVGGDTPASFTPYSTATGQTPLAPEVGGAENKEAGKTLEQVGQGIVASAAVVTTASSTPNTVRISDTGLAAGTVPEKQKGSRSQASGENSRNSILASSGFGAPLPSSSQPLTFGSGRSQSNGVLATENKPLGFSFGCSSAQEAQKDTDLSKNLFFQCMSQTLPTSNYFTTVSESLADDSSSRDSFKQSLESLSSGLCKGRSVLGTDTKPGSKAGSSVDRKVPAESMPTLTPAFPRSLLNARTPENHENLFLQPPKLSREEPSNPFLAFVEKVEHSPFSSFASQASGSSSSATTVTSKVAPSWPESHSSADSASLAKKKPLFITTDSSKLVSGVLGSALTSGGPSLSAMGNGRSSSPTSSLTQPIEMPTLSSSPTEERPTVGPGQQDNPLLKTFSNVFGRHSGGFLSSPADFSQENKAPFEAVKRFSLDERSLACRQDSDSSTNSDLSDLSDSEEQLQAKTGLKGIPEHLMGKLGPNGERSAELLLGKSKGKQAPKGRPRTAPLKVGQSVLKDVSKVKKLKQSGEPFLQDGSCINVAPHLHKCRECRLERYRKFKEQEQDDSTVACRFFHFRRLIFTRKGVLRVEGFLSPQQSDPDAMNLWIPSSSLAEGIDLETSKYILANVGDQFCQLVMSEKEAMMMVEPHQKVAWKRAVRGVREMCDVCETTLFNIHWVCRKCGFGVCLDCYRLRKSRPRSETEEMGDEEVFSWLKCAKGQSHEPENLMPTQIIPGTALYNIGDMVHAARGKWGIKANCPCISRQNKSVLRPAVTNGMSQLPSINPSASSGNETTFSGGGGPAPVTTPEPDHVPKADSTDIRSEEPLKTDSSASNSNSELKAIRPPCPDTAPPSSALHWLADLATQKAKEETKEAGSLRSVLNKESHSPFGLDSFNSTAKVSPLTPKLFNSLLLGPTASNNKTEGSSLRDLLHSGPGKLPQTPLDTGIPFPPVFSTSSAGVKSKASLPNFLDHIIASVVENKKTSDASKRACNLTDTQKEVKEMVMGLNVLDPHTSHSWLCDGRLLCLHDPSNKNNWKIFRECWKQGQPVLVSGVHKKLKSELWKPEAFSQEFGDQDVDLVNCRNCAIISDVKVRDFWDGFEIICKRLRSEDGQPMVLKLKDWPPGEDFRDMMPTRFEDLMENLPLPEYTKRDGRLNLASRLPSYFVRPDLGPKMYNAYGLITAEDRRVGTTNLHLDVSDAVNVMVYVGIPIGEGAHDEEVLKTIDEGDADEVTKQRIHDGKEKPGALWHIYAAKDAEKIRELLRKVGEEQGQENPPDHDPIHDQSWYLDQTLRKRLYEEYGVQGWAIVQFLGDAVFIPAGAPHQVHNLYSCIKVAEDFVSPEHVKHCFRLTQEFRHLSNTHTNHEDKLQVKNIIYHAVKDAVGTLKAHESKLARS
UniProt P53990, whole entry, looked up: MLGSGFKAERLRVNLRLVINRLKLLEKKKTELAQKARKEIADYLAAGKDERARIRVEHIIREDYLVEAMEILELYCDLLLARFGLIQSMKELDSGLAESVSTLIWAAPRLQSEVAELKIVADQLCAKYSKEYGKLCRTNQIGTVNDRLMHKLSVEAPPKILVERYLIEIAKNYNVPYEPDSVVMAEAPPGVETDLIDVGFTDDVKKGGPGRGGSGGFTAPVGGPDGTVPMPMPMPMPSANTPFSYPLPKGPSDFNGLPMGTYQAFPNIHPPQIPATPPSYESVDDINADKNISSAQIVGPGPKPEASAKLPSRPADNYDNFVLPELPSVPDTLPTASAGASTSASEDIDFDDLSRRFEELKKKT
UniProt Q8N5M9: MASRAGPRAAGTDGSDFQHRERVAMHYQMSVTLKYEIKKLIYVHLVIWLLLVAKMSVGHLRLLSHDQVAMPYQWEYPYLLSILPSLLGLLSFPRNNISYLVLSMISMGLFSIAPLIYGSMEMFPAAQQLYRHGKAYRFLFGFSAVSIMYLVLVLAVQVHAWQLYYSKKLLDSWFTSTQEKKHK
UniProt Q92551: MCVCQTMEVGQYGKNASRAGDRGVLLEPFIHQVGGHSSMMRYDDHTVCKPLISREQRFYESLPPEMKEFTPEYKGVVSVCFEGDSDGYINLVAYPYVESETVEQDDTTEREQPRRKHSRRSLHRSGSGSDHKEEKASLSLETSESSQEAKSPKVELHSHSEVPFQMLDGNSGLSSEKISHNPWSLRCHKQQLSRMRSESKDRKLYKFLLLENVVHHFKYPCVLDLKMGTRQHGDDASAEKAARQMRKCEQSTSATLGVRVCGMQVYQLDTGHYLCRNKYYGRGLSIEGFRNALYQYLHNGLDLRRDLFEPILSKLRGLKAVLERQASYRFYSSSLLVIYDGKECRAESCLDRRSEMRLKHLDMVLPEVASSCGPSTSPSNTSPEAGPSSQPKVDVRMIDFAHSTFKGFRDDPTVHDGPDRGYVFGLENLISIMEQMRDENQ
UniProt P0C870: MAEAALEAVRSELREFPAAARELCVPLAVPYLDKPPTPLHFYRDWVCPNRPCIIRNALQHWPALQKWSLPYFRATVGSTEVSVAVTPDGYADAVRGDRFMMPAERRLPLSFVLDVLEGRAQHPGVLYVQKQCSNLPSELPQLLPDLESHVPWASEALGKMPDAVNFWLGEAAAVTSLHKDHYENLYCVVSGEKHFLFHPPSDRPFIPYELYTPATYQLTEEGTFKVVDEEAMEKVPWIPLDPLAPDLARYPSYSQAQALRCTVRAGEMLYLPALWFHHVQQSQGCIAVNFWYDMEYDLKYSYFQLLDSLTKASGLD
UniProt O95279: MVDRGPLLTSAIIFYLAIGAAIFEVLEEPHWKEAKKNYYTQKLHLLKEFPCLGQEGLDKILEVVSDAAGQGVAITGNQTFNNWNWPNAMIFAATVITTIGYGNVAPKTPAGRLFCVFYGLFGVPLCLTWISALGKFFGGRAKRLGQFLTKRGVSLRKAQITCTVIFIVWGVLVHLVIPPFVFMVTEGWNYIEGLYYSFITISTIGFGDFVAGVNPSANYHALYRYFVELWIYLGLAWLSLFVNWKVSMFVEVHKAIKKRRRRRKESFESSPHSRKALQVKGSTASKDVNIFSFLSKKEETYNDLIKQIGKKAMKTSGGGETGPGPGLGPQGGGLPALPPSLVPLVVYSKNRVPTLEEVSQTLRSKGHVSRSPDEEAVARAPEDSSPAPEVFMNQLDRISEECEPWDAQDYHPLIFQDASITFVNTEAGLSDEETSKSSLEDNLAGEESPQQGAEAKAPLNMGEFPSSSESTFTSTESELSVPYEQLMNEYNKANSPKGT
UniProt Q9H079: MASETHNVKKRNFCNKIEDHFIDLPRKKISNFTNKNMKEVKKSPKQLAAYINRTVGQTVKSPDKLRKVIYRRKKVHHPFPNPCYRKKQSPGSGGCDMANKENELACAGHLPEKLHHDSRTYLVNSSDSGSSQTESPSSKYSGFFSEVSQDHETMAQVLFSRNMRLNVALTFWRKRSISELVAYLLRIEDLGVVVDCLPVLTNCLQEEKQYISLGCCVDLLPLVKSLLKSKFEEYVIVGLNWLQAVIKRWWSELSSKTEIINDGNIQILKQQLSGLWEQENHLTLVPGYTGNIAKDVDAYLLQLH
UniProt Q9H9V9: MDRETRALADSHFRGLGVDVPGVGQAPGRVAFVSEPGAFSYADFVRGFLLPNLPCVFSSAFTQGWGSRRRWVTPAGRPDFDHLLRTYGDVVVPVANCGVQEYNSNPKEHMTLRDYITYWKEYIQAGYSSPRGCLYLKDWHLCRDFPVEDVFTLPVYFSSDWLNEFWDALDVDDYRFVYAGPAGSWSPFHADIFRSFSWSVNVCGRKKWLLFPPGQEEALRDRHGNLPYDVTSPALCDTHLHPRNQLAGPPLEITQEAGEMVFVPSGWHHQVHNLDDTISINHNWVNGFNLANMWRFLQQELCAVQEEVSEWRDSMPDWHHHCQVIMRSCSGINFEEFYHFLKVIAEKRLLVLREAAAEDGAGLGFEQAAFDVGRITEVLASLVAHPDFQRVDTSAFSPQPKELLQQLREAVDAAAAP
UniProt O43731: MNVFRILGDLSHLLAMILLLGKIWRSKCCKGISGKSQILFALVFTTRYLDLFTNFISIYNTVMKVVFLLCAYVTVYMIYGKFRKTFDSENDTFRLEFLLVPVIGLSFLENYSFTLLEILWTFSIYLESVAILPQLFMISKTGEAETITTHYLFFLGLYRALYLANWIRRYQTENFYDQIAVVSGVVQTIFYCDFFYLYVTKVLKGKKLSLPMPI
UniProt O43736: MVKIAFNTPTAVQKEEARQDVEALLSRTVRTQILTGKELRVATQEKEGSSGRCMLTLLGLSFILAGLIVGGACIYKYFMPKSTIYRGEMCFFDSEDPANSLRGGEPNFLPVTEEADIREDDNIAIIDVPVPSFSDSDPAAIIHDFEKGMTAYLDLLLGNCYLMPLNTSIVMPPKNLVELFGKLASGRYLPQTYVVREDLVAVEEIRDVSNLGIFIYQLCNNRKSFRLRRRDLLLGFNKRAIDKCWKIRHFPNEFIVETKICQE

Compound: Cc1nc(Nc2ncc(C(=O)Nc3c(C)cccc3Cl)s2)cc(N2CCN(CCO)CC2)n1 [dasatinib]
Experiment: log2 fold change, soluble protein after heating vs DMSO (PISA); higher = thermal stabilisation; K562 lysate, 10 uM; active = over 0.2 and 3.5 SD of the protein, either way, in both replicates (recomputed)
Procedure, shortened: (§1)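 Quantification was by TMTpro 16plex LC-MS/MS with equalised channel sums, applied to the supernatant after 21,000xg for 90 min. Samples were crude K562 extract at 1 mg/mL protein in PBS pH 7.4 with 1 mM MgCl2, treated with 10 μM compound for 30 min, heated for 3 min across 48°C-58°C, pooled and brought to 0.5% NP-40 at 4°C. Values are log-two fold changes in thermal stability relative to solvent controls, from duplicates.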

log2 fold change, inactive:
KCTD7 (UniProt Q96MP8) 0.049
JAG2 (UniProt Q9Y219) -0.159
KCNK1 (UniProt O00180) 0.05
KCMF1 (UniProt Q9P0J7) -0.061
KAT2A (UniProt Q92830) 0.03
JTB (UniProt O76095) -0.052
KDM3B (UniProt Q7LBC6) -0.041
KDM1B (UniProt Q8NB78) -0.039
JUN (UniProt P05412) -0.035
ITM2C (UniProt Q9NQX7) -0.098
IRS2 (UniProt Q9Y4H2) -0.018
KAT6B (UniProt Q8WYB5) -0.12
IPO5 (UniProt H0Y3V4) -0.114
IQGAP3 (UniProt Q86VI3) 0.023
IST1 isoform 2 (UniProt P53990) -0.012
JAGN1 (UniProt Q8N5M9) -0.036
IQGAP1 (UniProt P46940) -0.012
IP6K1 (UniProt Q92551) -0.009
JMJD7 (UniProt P0C870) -0.321
KBTBD7 (UniProt Q8WVZ9) 0.023
KCNK5 (UniProt O95279) 0.121
KATNBL1 (UniProt Q9H079) 0.068
JMJD4 (UniProt Q9H9V9) -0.157
KDELR3 (UniProt O43731) 0.038
KDELR1 (UniProt P24390) -0.002
ITM2A (UniProt O43736) 0.118
ITGB1BP1 (UniProt O14713) -0.036

Compound: Cc1ncc(-c2ccnc(Nc3ccc(S(C)(=O)=O)cc3)n2)n1C(C)C
Experiment: as above
Procedure, shortened: as §1

log2 fold change, inactive:
KCNK1 (UniProt O00180) -0.156
KCMF1 (UniProt Q9P0J7) -0.025
ITGAE (UniProt P38570) -0.046
KAT2A (UniProt Q92830) -0.085
JTB (UniProt O76095) 0.062
KDM3B (UniProt Q7LBC6) 0.008
KDM1B (UniProt Q8NB78) -0.077
ITGA2B (UniProt P08514) -0.107
IRS2 (UniProt Q9Y4H2) -0.071
IPO5 (UniProt H0Y3V4) -0.011
IQGAP3 (UniProt Q86VI3) 0.006
IST1 isoform 2 (UniProt P53990) 0.112
JAGN1 (UniProt Q8N5M9) -0.048
IQGAP1 (UniProt P46940) -0.01
IP6K1 (UniProt Q92551) 0.061
ITPRID2 (UniProt P28290) -0.07
JMJD7 (UniProt P0C870) 0.098
KCNK5 (UniProt O95279) -0.143
IQCD (UniProt Q96DY2) 0.109
KDF1 (UniProt Q8NAX2) 0.022
ITIH2 (UniProt P19823) -0.006
KCNN4 (UniProt O15554) 0.19
KATNBL1 (UniProt Q9H079) -0.159
JMJD4 (UniProt Q9H9V9) 0.017
KDELR3 (UniProt O43731) -0.094
ITM2A (UniProt O43736) 0.263
ITGB1BP1 (UniProt O14713) 0.002

Compound: Cn1cc(-c2ccc3c(c2)CCN3C(=O)Cc2cccc(C(F)(F)F)c2)c2c(N)ncnc21
Experiment: as above
Procedure, shortened: as §1

log2 fold change, inactive:
KCTD7 (UniProt Q96MP8) 0.009
JAG2 (UniProt Q9Y219) 0.06
KCNK1 (UniProt O00180) -0.052
KCMF1 (UniProt Q9P0J7) -0.016
KAT2A (UniProt Q92830) 0.12
JTB (UniProt O76095) 0.046
KDM3B (UniProt Q7LBC6) -0.019
KDM1B (UniProt Q8NB78) 0.049
JUN (UniProt P05412) 0.009
ITM2C (UniProt Q9NQX7) 0.084
IRS2 (UniProt Q9Y4H2) -0.074
KAT6B (UniProt Q8WYB5) -0.006
IPO5 (UniProt H0Y3V4) 0.006
IQGAP3 (UniProt Q86VI3) 0.039
IST1 isoform 2 (UniProt P53990) -0.045
JAGN1 (UniProt Q8N5M9) 0.082
IQGAP1 (UniProt P46940) 0.01
IP6K1 (UniProt Q92551) 0.021
JMJD7 (UniProt P0C870) 0.011
KBTBD7 (UniProt Q8WVZ9) 0.002
KCNK5 (UniProt O95279) 0.029
KATNBL1 (UniProt Q9H079) -0.073
JMJD4 (UniProt Q9H9V9) -0.142
KDELR3 (UniProt O43731) -0.114
KDELR1 (UniProt P24390) 0.029
ITM2A (UniProt O43736) -0.02
ITGB1BP1 (UniProt O14713) 0.072
